According to the supplement of paper PMC10973195:
± gives the standard deviation of the averaged measurements. This is one part of the list. Values are raw readings; no control value is given beside them.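 The test system is a mixed culture of neurons, microglia and astrocytes in which bacterial LPS triggers microglia-driven neuron loss, modelling inflammatory neurodegeneration. Each compound was compared with vehicle (DMSO) wells on the same plates, and the SYK inhibitor BAY61-3606 served as the reference neuroprotective control.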

test system: rat primary cerebellar neuron-glia coculture; test: necrotic cell count (DRAQ7+) per image field (cells per field); higher = more necrosis; settings: LPS 0 ng/mL; 1 µM; treatment time 3 days
Procedure: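 Primary rat (P3-7) cerebellar neuron-glia cocultures in 384-well plates were treated at DIV7 with 1 uM compound, then with or without 100 ng/mL LPS 30 min later, for 3 days. At DIV10 live cells were stained with Hoechst 33342, NeuO (live neurons), IB4-AF594 (microglia) and DRAQ7 (necrotic cells) and imaged at 10x (4 fields per well, IN Cell Analyzer 6000). Cells were classified with Cellpose/CellProfiler plus a Random Trees classifier. Values are per-well mean counts per image field (raw, not min-max normalised) and the median microglial FormFactor per image. Three technical replicates per repeat across 4 biological repeats; DMSO and BAY61-3606 serve as controls.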

Cc1cc(NC(=O)NCCN2CCC(O)(Cc3ccccc3)CC2)c2ccccc2n1 and COc1ccc(COC(=O)C2=C(C)NC(=O)NC2c2ccccc2)cc1 (stereo not given) are within error of each other in necrotic cell count: 83.9 ± 34 for the first, 89.9 ± 18 for the second.

COc1cc2c(N3CCN(C(=O)Nc4ccc(OC(C)C)cc4)CC3)ncnc2cc1OCCCN1CCCCC1 and COc1cc2c(cc1OCCCN1CCCC1)N=C(N)C21CCC1 are within error of each other in necrotic cell count: 119 ± 31 for the first, 72.1 ± 32 for the second.

Cc1nc(C#Cc2cccnc2)cs1 and O=C(Nc1cccnc1)c1ccc(Cl)cc1 are within error of each other in necrotic cell count: 82.6 ± 31 for the first, 84.8 ± 32 for the second.

O=C(NCCCCCCNC(=O)ON=C1CCCCC1)ON=C1CCCCC1 and CCOC(=O)[C@H](CCc1ccccc1)N[C@@H](C)C(=O)N1CCC[C@H]1C(=O)O are within error of each other in necrotic cell count: 80.2 ± 25 for the first, 81.9 ± 29 for the second.

c1ccc(-c2ccc(CSc3nnc(-c4ccc5c(c4)OCO5)o3)cc2)cc1 and NC(=O)c1ccc(-c2nc(-c3ccccn3)c(-c3ccc4c(c3)OCO4)[nH]2)cc1 are within error of each other in necrotic cell count: 94.5 ± 38 for the first, 88.7 ± 32 for the second.

COc1cc(OC2CCN(C)CC2)ccc1Nc1ncc2c(n1)n(C1CCCC1)c(=O)n2C and CCCCOc1nc(N)c2c(n1)N(Cc1cccc(CN3CCCC3)c1)CC(=O)N2 are within error of each other in necrotic cell count: 83.4 ± 33 for the first, 107 ± 140 for the second.

CC[C@@H]1[C@@H](C)[C@H](Nc2ccccc2)c2ccccc2N1C(=O)c1ccc(Br)cc1 and CN(C)c1ccc(/C=C2\C(=O)Nc3ccccc32)cc1 are within error of each other in necrotic cell count: 75.1 ± 28 for the first, 79.8 ± 36 for the second.

O=c1ncn2nc(Sc3ccc(F)cc3F)ccc2c1-c1c(Cl)cccc1Cl and N#Cc1cccc(NC(=O)c2ccccn2)c1 are within error of each other in necrotic cell count: 73.7 ± 21 for the first, 87.6 ± 33 for the second.

Compared with CC1(C)Cc2c(c(N3CCOCC3)nc3sc4c(NCCN5CCOCC5)ncnc4c23)CO1, Cc1cc(O)c(-c2ccc([C@@H](C)CN(C)C)cc2)c2c1[nH]c(=O)c1sccc12 is higher in necrotic cell count: 85.4 ± 36 for the first, 426 ± 120 for the second.

O=C(Nc1cccc(C(F)(F)F)c1)Nc1cc(S(=O)(=O)NC2CC2)ccc1-c1ccsc1 and O=C(/C=C/N1C[C@H]2C[C@@H]1CN2c1ccccn1)c1ccccc1O are within error of each other in necrotic cell count: 73.1 ± 26 for the first, 68.5 ± 14 for the second.

same assay, conditions: LPS 100 ng/mL; 1 µM; treatment time 3 days

Cc1cc(NC(=O)NCCN2CCC(O)(Cc3ccccc3)CC2)c2ccccc2n1 and COc1ccc(COC(=O)C2=C(C)NC(=O)NC2c2ccccc2)cc1 (stereo not given) are within error of each other in necrotic cell count: 949 ± 260 for the first, 758 ± 350 for the second.

COc1cc2c(N3CCN(C(=O)Nc4ccc(OC(C)C)cc4)CC3)ncnc2cc1OCCCN1CCCCC1 and COc1cc2c(cc1OCCCN1CCCC1)N=C(N)C21CCC1 are within error of each other in necrotic cell count: 967 ± 260 for the first, 1000 ± 410 for the second.

Cc1nc(C#Cc2cccnc2)cs1 and O=C(Nc1cccnc1)c1ccc(Cl)cc1 are within error of each other in necrotic cell count: 931 ± 510 for the first, 994 ± 440 for the second.

O=C(NCCCCCCNC(=O)ON=C1CCCCC1)ON=C1CCCCC1 and CCOC(=O)[C@H](CCc1ccccc1)N[C@@H](C)C(=O)N1CCC[C@H]1C(=O)O are within error of each other in necrotic cell count: 883 ± 300 for the first, 772 ± 310 for the second.

c1ccc(-c2ccc(CSc3nnc(-c4ccc5c(c4)OCO5)o3)cc2)cc1 and NC(=O)c1ccc(-c2nc(-c3ccccn3)c(-c3ccc4c(c3)OCO4)[nH]2)cc1 are within error of each other in necrotic cell count: 969 ± 420 for the first, 1460 ± 360 for the second.

COc1cc(OC2CCN(C)CC2)ccc1Nc1ncc2c(n1)n(C1CCCC1)c(=O)n2C and CCCCOc1nc(N)c2c(n1)N(Cc1cccc(CN3CCCC3)c1)CC(=O)N2 are within error of each other in necrotic cell count: 1050 ± 270 for the first, 1110 ± 510 for the second.

CC[C@@H]1[C@@H](C)[C@H](Nc2ccccc2)c2ccccc2N1C(=O)c1ccc(Br)cc1 and CN(C)c1ccc(/C=C2\C(=O)Nc3ccccc32)cc1 are within error of each other in necrotic cell count: 870 ± 310 for the first, 1080 ± 330 for the second.

Going from O=c1ncn2nc(Sc3ccc(F)cc3F)ccc2c1-c1c(Cl)cccc1Cl to N#Cc1cccc(NC(=O)c2ccccn2)c1, the necrotic cell count rises from 399 ± 230 to 1100 ± 310.

First: CC1(C)Cc2c(c(N3CCOCC3)nc3sc4c(NCCN5CCOCC5)ncnc4c23)CO1
Second: Cc1cc(O)c(-c2ccc([C@@H](C)CN(C)C)cc2)c2c1[nH]c(=O)c1sccc12
The necrotic cell count of the first is higher: 1110 ± 230 for the first, 500 ± 150 for the second.

O=C(Nc1cccc(C(F)(F)F)c1)Nc1cc(S(=O)(=O)NC2CC2)ccc1-c1ccsc1 and O=C(/C=C/N1C[C@H]2C[C@@H]1CN2c1ccccn1)c1ccccc1O are within error of each other in necrotic cell count: 990 ± 380 for the first, 905 ± 300 for the second.
